Earlier results, collected in patent US9775855B2, “Compositions comprising macrolide and tetracycline and their uses” (priority 2011, dated 2017).
At least one structure is not confirmed: it was looked up by name or label, or the drawing left a doubt.

CN(C)c1ccc(O)c2c1C[C@H]1C[C@H]3[C@H](N(C)C)C(O)=C(C(N)=O)C(=O)[C@@]3(O)C(O)=C1C2=O [Minocycline]
cognitive impairment (AD models): improves
neuroprotection (animal model of ischemia): neuroprotective
